Reference: PubChem BioAssay AID2685 (National Center for Advancing Translational Sciences (NCATS), 2010)
The list shows a part of the results. Shown are side measurements of this screen, not its main read-out; they come without a call. Compounds called inactive in the main read-out are mostly missing here. Potencies come from curve fits of mixed quality, noted in brackets.

Assay: qHTS Assay for Lipid Storage Modulators in Drosophila S3 Cells;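 as to cell number change: cells counted by Cell Tracker Red CMTPX staining in the red channel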
Settings: BODIPY lipid droplet fluorescence, 18-24 h; for cell number change: measured here: cell count max response, cells fed with added oleic acid
Outline: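 Laser-scanning cytometry quantifies lipid droplet accumulation (500–530 nm total intensity; droplet/cell object ratio) in oleic acid-fed (400 uM added) Drosophila S3 cells treated with a concentration series. 20 uM Triacsin C defined 100% inhibition.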

[1] = measured here: lipid fluorescence (Fed channel) AC50, cells fed with added oleic acid
[2] = measured here: cell number channel AC50, cells fed with added oleic acid

Question: Which cell number change does the source give for `O=C(CCNC(=O)c1ccc(Br)cc1)NCCCN1CCOCC1` here?
Answer: 1.75%

Question: And the AC50 [1]?
Answer: 6.51 µM [falling, single point]

Question: For `COc1ccc([C@H]2CC(=O)C=C(/C=C/c3ccc(Cl)cc3)C2)cc1`, which cell number change is on record?
Answer: 5.65%

Question: What about the AC50 [1] of the same compound?
Answer: 6.51 µM [falling, single point]

Question: Which results are given for `CCc1ccc(Nc2n[n+](-c3ccccc3)c(-c3cccc(Cl)c3Cl)s2)cc1`?
Answer: cell number change: 3.04%; AC50 [1]: 1.03 µM [rising, full curve, poor fit]

Question: Which results are given for `CC(=O)C1=C(C)NC(SCC(=O)c2ccc(Cl)cc2Cl)=C(C#N)C1c1ccco1` (configuration not stated)?
Answer: cell number change: -57.9%; AC50 [2]: 14.6 µM [falling, partial curve]; AC50 [1]: 18.4 µM [falling, partial curve]

Question: Which results are given for `CN1N=C2c3ccccc3CCC2C1c1ccc(F)cc1` (configuration not stated)?
Answer: cell number change: 10.9%; AC50 [1]: 0.0411 µM [rising, full curve, poor fit]

Question: With `CCCCn1c(N)c(N(CCOC)C(=O)c2ccco2)c(=O)[nH]c1=O` as the compound, how does the cell number change read?
Answer: -40.1%

Question: And the AC50 [2]?
Answer: 29.1 µM [falling, single point]

Question: Which cell number change does the source give for `COc1ccc(CC(NC(C)=O)C(=O)NC2CCN(C(=O)c3ccccc3F)CC2)cc1` (configuration not stated) here?
Answer: 21.3%

Question: Which cell number change does the source give for `CN(C)c1ccc(N=Cc2cccn2C)cc1` here?
Answer: -33.3%

Question: And the AC50 [2]?
Answer: 2.31 µM [falling, full curve]

Question: What about the AC50 [1] of the same compound?
Answer: 6.51 µM [falling, partial curve]

Question: With `Cc1onc(-c2c(F)cccc2Cl)c1C(=O)c1ccccc1O` as the compound, how does the cell number change read?
Answer: -23.5%

Question: What about the AC50 [1] of the same compound?
Answer: 23.1 µM [falling, single point]

Question: Which cell number change does the source give for `N#C/C(=C/Nc1ccccc1C(=O)O)C(N)=O` here?
Answer: -27.4%

Question: What about the AC50 [1] of the same compound?
Answer: 0.231 µM [falling, full curve, poor fit]

Question: Which results are given for `COc1cc(NC(=O)c2ccc(CNc3c(N4CCCC4)c(=O)c3=O)cc2)cc(OC)c1OC`?
Answer: cell number change: 0.367%; AC50 [1]: 0.103 µM [falling, full curve, poor fit]

Question: What does the source list for `COc1ccc(Cl)cc1NC(=O)c1ccco1`?
Answer: cell number change: 8.05%; AC50 [1]: 1.84 µM [rising, partial curve]

Question: With `NS(=O)(=O)c1ccc(NC(=O)COC(=O)CC2Sc3ccccc3NC2=O)cc1` (configuration not stated) as the compound, how does the cell number change read?
Answer: -6.14%

Question: And the AC50 [2]?
Answer: 6.51 µM [falling, single point]

Question: Which cell number change does the source give for `COc1ccccc1C(=O)Nc1c(C(=O)N(CCN(C)C)Cc2ccco2)oc2ccccc12` here?
Answer: 3.04%

Question: And the AC50 [1]?
Answer: 5.8 µM [rising, single point]

Question: With `O=C1CC(c2ccncc2)c2cc3c(cc2N1)OCO3` (configuration not stated) as the compound, how does the AC50 [2] read?
Answer: 1.84 µM [rising, partial curve]

Question: What about the AC50 [1] of the same compound?
Answer: 2.59 µM [rising, partial curve]

Question: What does the source list for `Nc1ccccc1Oc1c(F)c(F)c(Oc2ccccc2N)c(F)c1F`?
Answer: cell number change: -28.9%; AC50 [1]: 29.1 µM [falling, single point]

Question: What does the source list for `COc1ccc(CNC(=O)CCc2nnc3ccc(NCCCN4CCCC4=O)nn23)cc1`?
Answer: cell number change: 4.89%; AC50 [1]: 29.1 µM [rising, single point]

Question: Which cell number change does the source give for `CCOC(=O)N1CCC(NC(=O)c2cc3c(=O)n(C)c4ccccc4c3n2C)CC1` here?
Answer: -6.07%

Question: And the AC50 [1]?
Answer: 29.1 µM [falling, single point]

Question: For `COc1ccccc1CNC(=O)COc1ccc(S(=O)(=O)N2CCOCC2)cc1C`, which cell number change is on record?
Answer: -21%

Question: For `CCOC(=O)c1nn(-c2ccccc2)c(=O)cc1OCC(=O)Nc1cc(C)ccc1OC`, which AC50 [2] is on record?
Answer: 0.116 µM [falling, full curve, poor fit]

Question: And the AC50 [1]?
Answer: 20.6 µM [falling, single point]

Question: What does the source list for `O=C(CN(C(=O)CCC(=O)Nc1ccccn1)c1ccc(F)cc1)NCc1ccco1`?
Answer: cell number change: -8.57%; AC50 [1]: 6.51 µM [rising, partial curve]

Question: With `CCC1S/C(=N/N=C/c2ccco2)N(c2ccc(F)cc2)C1=O` (configuration not stated) as the compound, how does the cell number change read?
Answer: -44.8%

Question: What about the AC50 [2] of the same compound?
Answer: 25.9 µM [falling, single point]

Question: And the AC50 [1]?
Answer: 14.6 µM [falling, single point]

Question: With `O=C1NC(c2ccc(Br)cc2)Oc2ccccc21` (configuration not stated) as the compound, how does the cell number change read?
Answer: -8.29%

Question: And the AC50 [1]?
Answer: 0.013 µM [rising, full curve, poor fit]

Question: With `CCOC(=O)C1CCCN(C(=O)c2cn(CC)c3ccc(S(=O)(=O)N(C)C)cc3c2=O)C1` (configuration not stated) as the compound, how does the cell number change read?
Answer: -48.8%

Question: What about the AC50 [2] of the same compound?
Answer: 1.84 µM [falling, partial curve]

Question: For `Cc1ccc(NC(=O)c2ccc(Cn3cc(Cl)cn3)o2)c(C)c1`, which AC50 [1] is on record?
Answer: 29.1 µM [falling, single point]

Question: With `O=C(COC(=O)CNC(=O)c1ccccc1F)NCC(F)(F)F` as the compound, how does the cell number change read?
Answer: -6.95%

Question: And the AC50 [2]?
Answer: 0.461 µM [falling, single point]

Question: What does the source list for `COC(=O)c1ccc(NC(=O)COc2coc(CN3CCc4ccccc43)cc2=O)cc1`?
Answer: cell number change: -13.8%; AC50 [2]: 0.146 µM [falling, full curve, poor fit]

Question: What does the source list for `O=C(NCCS(=O)(=O)N1CCN(c2ccc(F)cc2)CC1)C12CC3CC(CC(C3)C1)C2`?
Answer: cell number change: 0.346%; AC50 [1]: 2.91 µM [rising, single point]

Question: Which results are given for `CCCc1nnc(NC(=O)COC(=O)c2cc(C)nc3ccccc23)s1`?
Answer: cell number change: -7.03%; AC50 [1]: 0.92 µM [rising, full curve, poor fit]

Question: For `O=C(NCC1CCCO1)c1cccc(F)c1` (configuration not stated), which cell number change is on record?
Answer: 1.38%

Question: And the AC50 [1]?
Answer: 18.4 µM [rising, single point]

Question: For `FC(F)(F)c1nnc(-c2ccccc2)nc1Sc1ccc(Cl)cc1`, which cell number change is on record?
Answer: -80%

Question: And the AC50 [2]?
Answer: 8.2 µM [falling, partial curve]

Question: And the AC50 [1]?
Answer: 29.1 µM [falling, single point]

Question: For `CC(C)N1CCc2c(sc(NC(=O)Cc3ccccc3)c2C(N)=O)C1`, which cell number change is on record?
Answer: -9.8%

Question: Which results are given for `CCN1C(=O)c2cccc3c(NC(=O)c4ccc(S(=O)(=O)N5CCOCC5)cc4)ccc1c23`?
Answer: cell number change: -11.4%; AC50 [1]: 1.84 µM [rising, partial curve]

Question: For `Cc1cc(Oc2ccc(Cl)cc2)nc(-c2ccccc2O)n1`, which AC50 [2] is on record?
Answer: 0.116 µM [rising, full curve, poor fit]

Question: And the AC50 [1]?
Answer: 1.03 µM [rising, partial curve]

Question: For `CCc1cc(C)cc(OCCNC(=O)c2cncc(Br)c2)c1`, which AC50 [2] is on record?
Answer: 1.16 µM [rising, full curve]

Question: And the AC50 [1]?
Answer: 2.31 µM [rising, partial curve]

Question: With `O=c1[nH]c(-c2ccccc2)c(-c2ccccc2)nc1[N+](=O)[O-]` as the compound, how does the cell number change read?
Answer: -4.5%

Question: And the AC50 [1]?
Answer: 29.1 µM [falling, single point]

Question: Which results are given for `COc1ccc(C(=O)N[C@H](C(=O)Nc2sccc2C(N)=O)C(C)C)cc1`?
Answer: cell number change: 7.14%; AC50 [2]: 6.51 µM [rising, single point]; AC50 [1]: 6.51 µM [rising, single point]

Question: Which cell number change does the source give for `CCOC(=O)C(C)Oc1ccc(C2NC(=O)NC(C)=C2C(C)=O)cc1Br` (configuration not stated) here?
Answer: 12.8%

Question: And the AC50 [1]?
Answer: 0.92 µM [falling, full curve, poor fit]

Question: Which cell number change does the source give for `COC(=O)Cn1c(CN2CCN(C(=O)c3ccco3)CC2)nc2c1c(=O)n(C)c(=O)n2C` here?
Answer: 19.5%

Question: For `CN(Cc1nc(-c2cnccn2)no1)Cc1n[nH]c2c1CCCCC2`, which cell number change is on record?
Answer: -12.4%

Question: Which AC50 [1] does the source give for `CC(C)c1nc(SCc2ccccn2)c2c(=O)n(C)c(=O)n(C)c2n1` here?
Answer: 6.51 µM [rising, single point]

Question: Which cell number change does the source give for `CC1(c2ccccc2)NC(=O)N(CC(=O)Nc2cccc(C#N)c2)C1=O` (configuration not stated) here?
Answer: -17.6%

Question: What about the AC50 [1] of the same compound?
Answer: 3.26 µM [rising, full curve, poor fit]

Question: With `O=C(NCCn1cc(SCc2ccc(F)cc2)c2ccccc21)c1c(F)cccc1F` as the compound, how does the cell number change read?
Answer: -21.4%

Question: What about the AC50 [1] of the same compound?
Answer: 1.84 µM [rising, partial curve]

Question: Which AC50 [2] does the source give for `Cn1nc(C(=O)OCc2ccccc2F)c2ccccc2c1=O` here?
Answer: 1.64 µM [rising, partial curve]

Question: And the AC50 [1]?
Answer: 1.3 µM [rising, full curve]

Question: With `COC(=O)C1C(c2ccccc2)C(C(=O)OCc2ccco2)C1c1ccccc1` (configuration not stated) as the compound, how does the cell number change read?
Answer: -34.1%

Question: What about the AC50 [2] of the same compound?
Answer: 16.4 µM [falling, partial curve, poor fit]

Question: And the AC50 [1]?
Answer: 23.1 µM [falling, partial curve]

Question: With `CC(OC(=O)CCCSc1nc2ccccc2s1)C(=O)NC(N)=O` (configuration not stated) as the compound, how does the cell number change read?
Answer: -7.33%

Question: And the AC50 [1]?
Answer: 3.66 µM [falling, partial curve]

Question: Which cell number change does the source give for `CC1CCN(S(=O)(=O)c2cccc(C(=O)NCc3cccs3)c2)CC1` here?
Answer: 10.5%

Question: What about the AC50 [1] of the same compound?
Answer: 29.1 µM [rising, single point]

Question: For `O=C(CNc1cccc(F)c1)Nc1cccc(S(=O)(=O)N2CCCCC2)c1`, which cell number change is on record?
Answer: -2.97%

Question: Which results are given for `COCCn1c(SCC(=O)Nc2cccc(OC)c2)nnc1-c1ccccc1`?
Answer: cell number change: 76.3%; AC50 [2]: 20.6 µM [rising, single point]; AC50 [1]: 0.82 µM [rising, single point]

Question: For `Cc1ccc(-c2nn(C)c(=O)c3ccccc23)cc1CNC(=O)Cn1nc(-c2ccccc2)c2ccccc2c1=O`, which cell number change is on record?
Answer: -1.61%

Question: Which cell number change does the source give for `Cc1ccc(Nc2nc(N)nc(CSc3ncccn3)n2)cc1` here?
Answer: 13.4%

Question: What about the AC50 [1] of the same compound?
Answer: 0.517 µM [rising, full curve]

Question: With `CCCC(=O)Nc1cc(C(=O)O)ccc1S(=O)(=O)c1ccc(C)cc1` as the compound, how does the cell number change read?
Answer: 15.6%

Question: And the AC50 [1]?
Answer: 20.6 µM [falling, partial curve]

Question: For `O=C(Cn1c(-c2ccccc2)noc1=O)Nc1ccc(S(=O)(=O)N2CCOCC2)cc1`, which cell number change is on record?
Answer: -10.5%

Question: Which AC50 [2] does the source give for `COc1ccc(-c2cc(C(F)(F)F)nc(-n3cc(Br)cn3)n2)cc1` here?
Answer: 1.03 µM [rising, partial curve]

Question: Which AC50 [2] does the source give for `COCCn1c(SC(C)C(=O)Nc2ncc(Cl)cc2Cl)nc2ccccc21` (configuration not stated) here?
Answer: 2.31 µM [rising, single point]

Question: And the AC50 [1]?
Answer: 3.26 µM [rising, partial curve]

Question: Which cell number change does the source give for `COc1ccc(C(C(N)=O)c2ncc(C(F)(F)F)cc2Cl)cc1OC` (configuration not stated) here?
Answer: -31%

Question: What does the source list for `CCCCCOc1ccc(Cn2ccnc2)cc1[N+](=O)[O-]`?
Answer: cell number change: -41.2%; AC50 [2]: 29.1 µM [falling, single point]

Question: With `CCOC(=O)c1ccccc1NC(=O)N1CCn2c(C)ccc2C1CC` (configuration not stated) as the compound, how does the AC50 [2] read?
Answer: 0.651 µM [falling, single point]

Question: With `COc1ccc(CC(=O)Nc2c3c(nn2-c2cccc(Cl)c2)CS(=O)(=O)C3)cc1` as the compound, how does the AC50 [2] read?
Answer: 3.66 µM [rising, partial curve]

Question: What about the AC50 [1] of the same compound?
Answer: 1.16 µM [rising, full curve]
